# Test results from PubChem BioAssay AID1347075 (National Center for Advancing Translational Sciences (NCATS), 2019).
# Among all 400,000 compounds or so, about 5,500 (1.4%) were called active. Inconclusive means that the source gave no clear call. Such entries were picked first, then a sample of the others. Calls come from the whole dose curve; as a rule, active = well fitted cell-killing curve with a large enough effect; inconclusive = small, poorly fitted or top-dose-only effect, or effect the other way; inactive = flat fitted curve, though single readings scatter. A potency beside an inconclusive call is a rough fit, not a confirmed value.
# Assay: qHTS assay for MDR1-selective chemotherapeutics: Primary screen using the parental adenocarcinoma cell KB-3-1; note: nearly all actives have a fitted effect of over 60% in size
# Settings: KB-3-1 viability, CellTiter-Glo ATP luminescence, 72 h; activity change, negative = cytotoxic: at 46.1 µM (top of the series)
# Procedure, shortened: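 KB-3-1 parental drug-naive adenocarcinoma cells in DMEM/10% FBS, incubated 72 h at 37 C with pin-transferred compounds across a concentration series. Viability by CellTiter-Glo luminescence; concentration-response curves fitted after normalization.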
# % is set by controls: 0 for no effect and ±100 for the full control effect; potency is the fitted concentration of half-maximal effect.
SMILES,Potency,"activity change, negative = cytotoxic"
Cc1ccc(C(C)C)c(OCCCCN2CCNCC2)c1,"inconclusive: 23.1 µM [cytotoxic, single point]",
CCOC(=O)c1cnc2c(ccc3ccccc32)c1Nc1cccc(C(F)(F)F)c1,inactive,
CCc1noc(-c2ccc(NCc3ccccc3)c([N+](=O)[O-])c2)n1,inactive,
C=CCN=c1scc(-c2ccc(F)cc2)n1/N=C/c1ccccn1,"inconclusive: 6.51 µM [cytotoxic, partial curve]",
Cc1ccc(Oc2nc(CN3CCOCC3)nc3sc4c(c23)CCC(C)C4)cc1C (stereo unspecified),"inconclusive: 20.6 µM [cytotoxic, partial curve, poor fit]",
NNC(=O)c1cc2c(N3CCC(Cc4ccccc4)CC3)ncnc2s1,"inconclusive: 18.4 µM [cytotoxic, single point]",
COc1ccc(Cn2c(C(=O)O)c(CNCCc3ccco3)c3ccc(C)cc32)cc1,"inconclusive: 3.26 µM [cytotoxic, full curve]",
O=C(CCC1CCCN(Cc2cccc(Cl)c2)C1)NCc1ccccc1F (stereo unspecified),"inconclusive: 23.1 µM [cytotoxic, single point]",
COc1ccc(CNC(=O)OCc2nccnc2C(=O)Nc2ccc(Br)cn2)cc1,inactive,
COc1ccc2nc(N3CCC(O)CC3)c(C#N)cc2c1,inactive,
O=C(CN1CCN(c2ccc(F)cc2)CC1)N1CCC(Cc2ccccc2)CC1,inactive,
Cn1c(N)c(C(=O)COC(=O)c2ccc(Cl)c(S(=O)(=O)N3CCCC3)c2)c(=O)n(C)c1=O,inactive,
COCCn1c(C)cc(C(=O)CSc2cc(C)c3ccc(OC)cc3n2)c1C,"inconclusive: 29.1 µM [cytotoxic, single point]",
CCC(=O)N1COC[C@@H]1Cc1ccccc1,"inconclusive: 32.6 µM [rising, single point]",
CCCNS(=O)(=O)c1ccc(CCC(=O)NCc2ccc3c(c2)OCO3)cc1,"inconclusive: 29.1 µM [cytotoxic, single point]",
COc1ccc(Nc2nnc(SCc3cn4c(C)cccc4n3)s2)cc1,active: 11.6 µM,
O=C(Nc1c(Cl)cccc1Cl)Oc1cccc2cccnc12,"inconclusive: 3.66 µM [cytotoxic, partial curve, poor fit]",
COc1ccc(C(=O)/C=C/c2ccc(O)cc2)c2c1CC(O)C(C)(C)O2 (stereo unspecified),"inconclusive: 29.1 µM [cytotoxic, single point]",
CCCc1[nH][nH]c(=O)c1C(c1cccc(Cl)c1)C(C#N)C#N (stereo unspecified),"inconclusive: 29.1 µM [cytotoxic, single point]",
CCc1cc2cc3c(cc2nc1SCC(=O)N1CCN(C(=O)c2ccco2)CC1)OCO3,inactive,
CCOc1ccc(NC(=O)CN2CCc3ccccc3C2)cc1,"inconclusive: 0.731 µM [rising, partial curve]",
Cc1ccc(C(C)C)c(OCC(=O)Nc2ccccc2N2CCN(C)CC2)c1,"inconclusive: 29.1 µM [cytotoxic, single point]",

# In a second layout: results already given.
SMILES | Potency | activity change, negative = cytotoxic
Cc1ccc(C(C)C)c(OCCCCN2CCNCC2)c1 | inconclusive: 23.1 µM [cytotoxic, single point] | 
CCOC(=O)c1cnc2c(ccc3ccccc32)c1Nc1cccc(C(F)(F)F)c1 | inactive | 
C=CCN=c1scc(-c2ccc(F)cc2)n1/N=C/c1ccccn1 | inconclusive: 6.51 µM [cytotoxic, partial curve] | 
NNC(=O)c1cc2c(N3CCC(Cc4ccccc4)CC3)ncnc2s1 | inconclusive: 18.4 µM [cytotoxic, single point] | 
COc1ccc2nc(N3CCC(O)CC3)c(C#N)cc2c1 | inactive | 
Cn1c(N)c(C(=O)COC(=O)c2ccc(Cl)c(S(=O)(=O)N3CCCC3)c2)c(=O)n(C)c1=O | inactive | 
COCCn1c(C)cc(C(=O)CSc2cc(C)c3ccc(OC)cc3n2)c1C | inconclusive: 29.1 µM [cytotoxic, single point] | 
CCC(=O)N1COC[C@@H]1Cc1ccccc1 | inconclusive: 32.6 µM [rising, single point] | 
CCCNS(=O)(=O)c1ccc(CCC(=O)NCc2ccc3c(c2)OCO3)cc1 | inconclusive: 29.1 µM [cytotoxic, single point] | 
COc1ccc(Nc2nnc(SCc3cn4c(C)cccc4n3)s2)cc1 | active: 11.6 µM | 
COc1ccc(C(=O)/C=C/c2ccc(O)cc2)c2c1CC(O)C(C)(C)O2 (stereo unspecified) | inconclusive: 29.1 µM [cytotoxic, single point] | 
CCc1cc2cc3c(cc2nc1SCC(=O)N1CCN(C(=O)c2ccco2)CC1)OCO3 | inactive | 
Cc1ccc(C(C)C)c(OCC(=O)Nc2ccccc2N2CCN(C)CC2)c1 | inconclusive: 29.1 µM [cytotoxic, single point] | 

# (next part)

SMILES,Potency,"activity change, negative = cytotoxic"
Cc1cc(C(=O)N/N=C/C=C/c2ccccc2)c(C)o1,"inconclusive: 29.1 µM [cytotoxic, partial curve, poor fit]",
O=C(c1ccc(S(=O)(=O)c2cccc(Cl)c2)c([N+](=O)[O-])c1)N1CCN(Cc2ccccc2)CC1,"inconclusive: 5.17 µM [cytotoxic, partial curve, poor fit]",
Cn1c(=O)n(C)c2cc(NC(=O)CCl)ccc21,active: 4.61 µM,
CCCCNC(=O)c1nc(-c2cnc(C)cn2)oc1-c1ccc(Cl)cc1,inactive,
O=C(Nc1ccc2c(c1)OCO2)c1cc(-c2ccc(Br)cc2)on1,"inconclusive: 18.4 µM [rising, single point]",
CCN(C(=O)CN1C(=O)COc2ccc(S(=O)(=O)N3CCCCCC3)cc21)c1cccc(C)c1,"inconclusive: 8.2 µM [cytotoxic, partial curve]",
O=C(NNC(=O)C12CC3CC(CC(O)(C3)C1)C2)c1ccccc1O,"inconclusive: 8.2 µM [cytotoxic, partial curve, poor fit]",
CN(C)/C=C/C(=O)c1cnc(-c2ccccn2)s1,"inconclusive: 29.1 µM [rising, single point]",
CC(C)N(C(=O)[C@H]1C[C@H](CC(=O)NCc2ccco2)C(=O)N2CCc3c([nH]c4ccc(Cl)cc34)[C@]12C)C(C)C,"inconclusive: 0.517 µM [cytotoxic, full curve, poor fit]",
C(=C\c1ccccc1)/CN1CCN(c2ncnc3c2oc2ccccc23)CC1,"inconclusive: 18.4 µM [cytotoxic, single point]",
CCNC(=S)N(CCc1ccc(S(N)(=O)=O)cc1)C1CC(=O)N(c2ccccc2)C1=O (stereo unspecified),,inconclusive: -44.6%
Cc1ccc(S(=O)(=O)N2CC3C(=O)CC(c4ccccc4)N(S(=O)(=O)c4ccc(C)cc4)C3CC2c2cccc(Cl)c2)cc1 (stereo unspecified),"inconclusive: 8.2 µM [cytotoxic, partial curve, poor fit]",
COc1cccc(CNc2nc3cc(-c4ccccc4)sc3c(=O)n2C)c1,active: 7.31 µM,
Cn1ncc(Cl)c1C(=O)Nc1cccc(Cl)c1,,inconclusive: -39.1% [cytotoxic]
Cc1cc(C)c2nc(C)cc(Nc3ccc(C(=O)NCCO)cc3)c2c1,"inconclusive: 29.1 µM [cytotoxic, single point]",
O=C1c2cccnc2C(=O)N1CO,inactive,
CC(=O)Nc1ccc(C(=O)N2CCCCC2c2cc(C(=O)NCc3cccnc3)no2)cc1 (stereo unspecified),inactive,
CCc1ccccc1NC(=O)CNC(=O)c1ccccc1OCc1c(C)noc1C,"inconclusive: 16.4 µM [rising, single point]",
Cc1cccc(NC(=S)NNc2ncc(C(F)(F)F)cc2Cl)c1,"inconclusive: 20.6 µM [cytotoxic, single point]",
NS(=O)(=O)c1ccc(CCNC(=O)NC2(C(F)(F)F)Oc3ccccc3O2)cc1,"inconclusive: 16.4 µM [cytotoxic, single point]",
O=C(Cc1ccc(-n2c(=O)c3sccc3n(Cc3ccc(F)cc3)c2=O)cc1)NCc1ccco1,"inconclusive: 20.6 µM [cytotoxic, single point]",
CC(C)NC(=O)N1c2ccccc2Sc2ccccc21,"inconclusive: 23.1 µM [cytotoxic, single point]",

SMILES,Potency,"activity change, negative = cytotoxic"
O=[N+]([O-])c1ccccc1NCc1ccc(Cl)cc1,"inconclusive: 9.2 µM [cytotoxic, partial curve]",
COc1ccccc1N1CCN(C(=O)c2cc(=O)c3cc(C)cc(C)c3o2)CC1,active: 0.206 µM,
Cc1cc(C)c(C)c(S(=O)(=O)N2CCN(CC(=O)c3c(N)n(Cc4ccccc4)c(=O)n(C)c3=O)CC2)c1C,"inconclusive: 20.6 µM [cytotoxic, partial curve, poor fit]",
Cc1ccc(CN(C)C(=O)CN2C(=O)NC(c3ccccc3)(c3ccccc3)C2=O)c(C)c1,"inconclusive: 29.1 µM [cytotoxic, single point]",
CN=C1S/C(=C\c2cccn2-c2cccc(Br)c2)C(=O)N1C,"inconclusive: 4.61 µM [rising, full curve, poor fit]",
COc1ccc(CCNS(=O)(=O)c2cc3c4c(c2)CCN4C(=O)CC3)cc1,inactive,
O=C(c1ccccc1)N1CCN(C(=O)c2ccccc2)CC1,"inconclusive: 0.291 µM [rising, full curve, poor fit]",
COc1ccc(C(=O)N/N=C/c2cc(Br)ccc2O)cc1OC,"inconclusive: 6.51 µM [cytotoxic, partial curve]",
COc1ccccc1-c1cccc(-c2nc(C(=O)Nc3nccs3)cc3c2[C@@H](CCO)N(C(C)=O)C3)c1,"inconclusive: 29.1 µM [cytotoxic, single point]",
COc1cc([N+](=O)[O-])cc(/C=N/NC(=O)c2cncc(Br)c2)c1O,"inconclusive: 18.4 µM [cytotoxic, single point]",
Cc1ccc(-c2nn(C(C)(C)C)c3ncnc(N)c23)cc1,"inconclusive: 29.1 µM [cytotoxic, single point]",
Cc1cccn2c(=O)c3cc(C(=O)NCCN4CCOCC4)c(=N)n(Cc4cccnc4)c3nc12,active: 8.2 µM,
COc1ccc(OCc2cc(C(=O)NCC(C)Oc3cccnc3)no2)c(Cl)c1 (stereo unspecified),inactive,
Cc1nn(Cc2ccccc2)c(C)c1C(=O)OCC(=O)c1cc(C)n(CC(F)(F)F)c1C,"inconclusive: 32.6 µM [cytotoxic, single point]",
Cc1c(/C=C/c2ccnc3ccccc23)ccc(N(C)C)c1C,"inconclusive: 29.1 µM [cytotoxic, single point]",
C/C(CC(=O)NCc1ccc(Cl)cc1)=N\NC(=O)COc1ccc(C)cc1Br,active: 5.17 µM,
Cc1cccc(N2CCN(C(C(=O)NCc3ccccc3)c3ccc(F)cc3)CC2)c1C (stereo unspecified),"inconclusive: 29.1 µM [cytotoxic, single point]",
CCOc1ccc(C(=O)c2cn(CC(=O)Nc3ccc(F)cc3)c3cc4c(cc3c2=O)OCCO4)cc1,inactive,
Cc1cccc(NS(=O)(=O)c2cccc(C(=O)NCC3(N4CCOCC4)CCCCC3)c2)c1,"inconclusive: 29.1 µM [cytotoxic, single point]",
COc1ccc(C(=O)Nc2ccccc2C(=O)N/N=C/c2ccc(O)c(OC)c2)cc1,"inconclusive: 32.6 µM [cytotoxic, single point]",
CCOC(=O)C1CCCN(S(=O)(=O)c2cc3c4c(c2)CC(=O)N4CCC3)C1 (stereo unspecified),inactive,
O=C(CCSc1nnc(-c2ccccc2)o1)N1CCOCC1,"inconclusive: 29.1 µM [cytotoxic, single point]",
